According to PubChem BioAssay AID330 (DTP/NCI, 2004):
The list does not hold the whole screen: it is rich in T/C values a quarter to a half above the control, in often repeated tests (any T/C) and in doses without a T/C. Further doses and runs are listed elsewhere. T/C: endpoint of the treated group in % of that of the vehicle group. Some entries give survivors of the animals treated and no T/C: the source files T/C as zero there, which appears to mark a toxic dose or a test without result, not a measured value. Some survivor counts are full or nearly so, which does not show that the dose was tolerated: survival well below the control is almost never listed, so the zero probably covers shortened survival too. Survivors were counted at the toxicity check, usually on the fifth day, unless a day is given; later deaths do not show. Schedule codes are those of the source, taken here to give the interval after Q, in days (D) or hours (H), and the number of doses after X. Some entries were tested several times; the results are listed from low to high. Where survival is the endpoint, this PubChem deposit counts one and a half times the control or more as active, and values a quarter to a half above the control carry no call in these data; other NCI protocols may use other cut-offs.

Test system: P388 leukemia ip, CD2F1 mice, survival T/C
Assay: NCI In Vivo Anticancer Drug Screen. Data for tumor model P388 Leukemia (intraperitoneal) in CD2F1 (CDF1) mice
Conditions: T/C endpoint: median survival time, higher T/C = longer survival
[1] = dose: 200.0 mg/kg/injection, schedule: Q01DX009 (ip), vehicle: saline with Tween-80
[2] = dose: 200.0 mg/kg/injection, schedule: Q01DX005 (ip), vehicle: saline with Tween-80
[3] = dose: 200.0 mg/kg/injection, schedule: Q01DX005 (ip), vehicle: saline
[4] = dose: 100.0 mg/kg/injection, schedule: Q01DX005 (ip), vehicle: saline
[5] = dose: 200.0 mg/kg/injection, schedule: Q01DX009 (ip), vehicle: saline
[6] = dose: 50.0 mg/kg/injection, schedule: Q01DX009 (ip), vehicle: saline

CNc1nc(N(C)C)nc(N(C)C)n1
survivor count (dose: 25.0 mg/kg/injection, schedule: Q01DX009 (ip), vehicle: water): 6 of 6 | survivor count (dose: 32.0 mg/kg/injection, schedule: Q01DX005 (iv), vehicle: water): 3 of 10 | T/C (dose: 50.0 mg/kg/injection, schedule: Q01DX009 (ip), vehicle: water): 125 % of control | survivor count (dose: 64.0 mg/kg/injection, schedule: Q01DX005 (iv), vehicle: water): 3 of 10 | survivor count (dose: 64.0 mg/kg/injection, schedule: Q03HX008 (ip), vehicle: water): 10 of 10 | survivor count (dose: 64.0 mg/kg/injection, schedule: Q03HX016 (ip), vehicle: water): 10 of 10 | survivor count (dose: 64.0 mg/kg/injection, schedule: Q03HX024 (ip), vehicle: water): 10 of 10 | T/C (dose: 100.0 mg/kg/injection, schedule: Q01DX009 (ip), vehicle: water): 126, 127, 138 % of control | survivor count (dose: 128.0 mg/kg/injection, schedule: Q01DX005 (iv), vehicle: water): 2 of 10 | survivor count (dose: 128.0 mg/kg/injection, schedule: Q01DX009 (ip), vehicle: water): 10 of 10 | survivor count (dose: 128.0 mg/kg/injection, schedule: Q03HX008 (ip), vehicle: water): 9 of 10 | survivor count (dose: 128.0 mg/kg/injection, schedule: Q03HX016 (ip), vehicle: water): 6 of 10 | survivor count (dose: 128.0 mg/kg/injection, schedule: Q03HX024 (ip), vehicle: water): 3 of 10 | survivor count (dose: 150.0 mg/kg/injection, schedule: Q01DX009 (ip), vehicle: water): 6 of 6 | survivor count (dose: 200.0 mg/kg/injection, schedule: Q01DX009 (ip), vehicle: water): 4 of 6 and 5 of 6 | survivor count (dose: 256.0 mg/kg/injection, schedule: Q01DX001 (ip), vehicle: water): 9 of 10 | survivor count (dose: 256.0 mg/kg/injection, schedule: Q01DX005 (ip), vehicle: water): 6 of 10 | survivor count (dose: 256.0 mg/kg/injection, schedule: Q01DX005 (iv), vehicle: water): 2 of 10 | survivor count (dose: 256.0 mg/kg/injection, schedule: Q01DX009 (ip), vehicle: water): 4 of 10 | survivor count (dose: 256.0 mg/kg/injection, schedule: Q01DX009 (oral), vehicle: water): 10 of 10 | survivor count (dose: 256.0 mg/kg/injection, schedule: Q01DX009 (sc), vehicle: water): 5 of 10 | survivor count (dose: 256.0 mg/kg/injection, schedule: Q04DX003 (ip), vehicle: water): 10 of 10 | survivor count (dose: 256.0 mg/kg/injection, schedule: Q08DX002 (ip), vehicle: water): 10 of 10 | survivor count (dose: 512.0 mg/kg/injection, schedule: Q01DX001 (ip), vehicle: water): 1 of 10 | survivor count (dose: 512.0 mg/kg/injection, schedule: Q01DX001 (oral), vehicle: water): 9 of 10 | survivor count (dose: 512.0 mg/kg/injection, schedule: Q04DX003 (ip), vehicle: water): 3 of 10 | survivor count (dose: 512.0 mg/kg/injection, schedule: Q08DX002 (ip), vehicle: water): 1 of 10

C[CH2][Ge]([CH2]C)[CH2]/C=C\[CH2][Ge]([CH2]C)[CH2]C
survivor count [1]: 4 of 6

COc1cc(NCCCCCNCC(C)(C)C)c2ncccc2c1
survivor count (dose: 100.0 mg/kg/injection, schedule: Q01DX005 (ip), vehicle: saline with Tween-80): 0 of 6 | survivor count [2]: 0 of 6

c1ccc2c(N3CCCCC3)ncnc2c1
survivor count [3]: 0 of 5

O/N=C/C(Cl)=N\O
survivor count (dose: 400.0 mg/kg/injection, schedule: Q04DX002 (ip), vehicle: saline with Tween-80): 0 of 6

COc1ccc2c(c1)C(CCN(C)C)(CCN(C)C)C(=O)CC2
survivor count [4]: 2 of 6 | survivor count [3]: 0 of 6

CCN(CC)c1ccc2nc3c4ccccc4c(=NC(=O)c4ccccc4-c4c5ccc(N(CC)CC)cc5[o+]c5cc(N(CC)CC)ccc45)cc-3oc2c1
survivor count [5]: 5 of 6

CC1=CCC(=O)C=[N+]1Cc1ccccc1
survivor count (dose: 25.0 mg/kg/injection, schedule: Q01DX005 (ip), vehicle: saline): 0 of 6 | survivor count (dose: 50.0 mg/kg/injection, schedule: Q01DX005 (ip), vehicle: saline): 0 of 6 | survivor count [4]: 0 of 6 | survivor count [3]: 0 of 6

S=c1nc[nH]c2c1ncn2C1CCCO1 (configuration not stated)
survivor count (dose: 400.0 mg/kg/injection, schedule: Q04DX003 (ip), vehicle: saline with Tween-80): 3 of 6

CCCC(O)(CCC)/C(C)=N/O
survivor count (dose: 100.0 mg/kg/injection, schedule: Q01DX009 (ip), vehicle: saline with Tween-80): 6 of 6

COc1ccc2c(c1)N=C(NNC1=Nc3cc(OC)ccc3SC1)CS2
survivor count (dose: 60.0 mg/kg/injection, schedule: Q01DX005 (ip), vehicle: saline with Tween-80): 6 of 6 | survivor count (dose: 120.0 mg/kg/injection, schedule: Q01DX005 (ip), vehicle: saline with Tween-80): 6 of 6 | survivor count (dose: 240.0 mg/kg/injection, schedule: Q01DX005 (ip), vehicle: saline with Tween-80): 6 of 6

CCCCCCCCCCCCCCCCNCCCS(=O)(=O)O
survivor count (dose: 25.0 mg/kg/injection, schedule: Q01DX009 (ip), vehicle: saline with Tween-80): 6 of 6 | T/C [6]: 126 % of control | survivor count (dose: 100.0 mg/kg/injection, schedule: Q01DX009 (ip), vehicle: saline): 5 of 6 | survivor count [5]: 0 of 6

O=C1C(=O)c2cccnc2-c2ncccc21
survivor count (dose: 12.5 mg/kg/injection, schedule: Q01DX005 (ip), vehicle: Klucel (hydroxypropylcellulose) (HPC)): 3 of 6 | survivor count (dose: 25.0 mg/kg/injection, schedule: Q01DX005 (ip), vehicle: Klucel (hydroxypropylcellulose) (HPC)): 1 of 6 | survivor count (dose: 50.0 mg/kg/injection, schedule: Q01DX005 (ip), vehicle: Klucel (hydroxypropylcellulose) (HPC)): 0 of 6 | survivor count (dose: 100.0 mg/kg/injection, schedule: Q01DX005 (ip), vehicle: Klucel (hydroxypropylcellulose) (HPC)): 0 of 6 | survivor count (dose: 200.0 mg/kg/injection, schedule: Q01DX005 (ip), vehicle: Klucel (hydroxypropylcellulose) (HPC)): 0 of 6

CCN(CC)CCCNc1cccc2c(SCc3ccccc3)ccnc12
survivor count [2]: 5 of 5

N#CC(OC(=O)c1ccccc1)C(OC(=O)c1ccccc1)C(COC(=O)c1ccccc1)OC(=O)c1ccccc1 (configuration not stated)
survivor count [2]: 5 of 5

O=C1Cc2ccccc2N1C(=O)c1ccc(Br)cc1
survivor count (dose: 400.0 mg/kg/injection, schedule: Q01DX001 (ip), vehicle: Klucel (hydroxypropylcellulose) (HPC)): 6 of 6

Cc1cc(-c2ccc(N3C(=O)CC4(CCCCC4)C3=O)c(C)c2)ccc1N1C(=O)CC2(CCCCC2)C1=O
survivor count (dose: 400.0 mg/kg/injection, schedule: Q04DX003 (ip), vehicle: Klucel (hydroxypropylcellulose) (HPC)): 6 of 6

N#CN=[N+]([O-])c1ccccc1[N+](=O)[O-]
survivor count (dose: 25.0 mg/kg/injection, schedule: Q04DX003 (ip), vehicle: Klucel (hydroxypropylcellulose) (HPC)): 0 of 6 | survivor count (dose: 50.0 mg/kg/injection, schedule: Q04DX003 (ip), vehicle: Klucel (hydroxypropylcellulose) (HPC)): 0 of 6 | survivor count (dose: 100.0 mg/kg/injection, schedule: Q04DX003 (ip), vehicle: Klucel (hydroxypropylcellulose) (HPC)): 0 of 6 | survivor count (dose: 200.0 mg/kg/injection, schedule: Q04DX003 (ip), vehicle: Klucel (hydroxypropylcellulose) (HPC)): 0 of 6

Clc1nc[nH]c1Cl
survivor count [1]: 0 of 6

NNS(=O)(=O)c1cccc(S(=O)(=O)NN)c1
survivor count (dose: 100.0 mg/kg/injection, schedule: Q01DX009 (ip), vehicle: other): 5 of 6 | survivor count (dose: 200.0 mg/kg/injection, schedule: Q01DX009 (ip), vehicle: other): 4 of 6

CN(C)/C(N)=N\c1ncccn1
survivor count [6]: 6 of 6

COCC1(COC)CCN(C2CC(O[C@H]3C[C@](O)(C(C)=O)Cc4c(O)c5c(c(O)c43)C(=O)c3c(OC)cccc3C5=O)OC(C)C2O)CC1 (some centres not stated)
T/C (dose: 25.0 mg/kg/injection, schedule: Q04DX003 (ip), vehicle: water): 148 % of control

CN(C)C(=S)SCc1ccc(C(=O)O)nc1
survivor count [1]: 3 of 6
